The whole screen tested about 53,000 sequences, of which about 3,700 (7%) were called active.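 Rule for the calls: active = gene knockdowns whose robust z-score for IL-1 alpha signal is at least 2 or at most -2, so actives lie on both sides; inactive = the rest.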 The list shows a part of the results.
Assay: Components of the Cytosolic LPS Sensing Pathway: Gene Identification via Genome-wide siRNA Screen;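 note: robust z of the log signal after scaling to non-targeting control siRNA wells of the plate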
Conditions: RAW264.7 macrophages, IL-1a HTRF, actives lie on both sides, screened at 100 nM (by protocol), cells primed 5 h with Pam3CSK4 first
Procedure, shortened: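 Three distinct siRNAs per gene were tested singly at 100 nM in RAW264.7 macrophages. Following Pam3CSK4 priming and 24 hour LipidA transfection, IL-1a secretion was read by HTRF.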
In the case of GGACACUUAAAGAUCCUGCTT against Armc7, the z-score is reported as inactive: -0.545. For GGUCACAGUUGUUUGAAGUTT against Bst2, the z-score was inactive: -1.18. In the case of GCAGAGGUCUCUAAGCCAUTT against Lad1, the z-score is reported as inactive: -1.07. For GGUUCAAAGUUCUAGCUAATT against Adss, the z-score was inactive: -0.25. In the case of GCAUGUCAGACUGGUGCAATT against Rexo2, the z-score is reported as inactive: 0.23. In the case of CCUCACUCUAUAAUAAAGATT against Fsd1, the z-score is reported as inactive: -0.131. With CCUCAAUUUAGGCACUAAUTT against Urgcp the z-score was inactive: -1.71. In the case of CCGAGUGAUGACCUACCGUTT against Ift43, the z-score is reported as inactive: -0.104. In the case of UCUAUCUCAUUACUAUUGUTT against Olfr190, the z-score is reported as inactive: 0.649. With GGUUUUAAAGCACUUUGUATT against Jazf1 the z-score was inactive: 0.288. In the case of GGAGAGUAUUCCAAGGUCCTT against Mrpl14, the z-score is reported as inactive: 0.694. With GGAUCUUGACUUUGAUAUGTT against Trpm4 the z-score was inactive: 0.0632. In the case of GCUGAAGAGAUAUGAGUUCTT against Dpp3, the z-score is reported as inactive: 1.43. With GGUAGACUUAUGUAGAUUCTT against Mrs2 the z-score was inactive: -0.933. With GGUCCUAGGUGCUAUAAUGTT against Matn4 the z-score was inactive: 1.12. With GCGACAUUGCCCUUCUCUGTT against Prss45 the z-score was inactive: -0.153. In the case of GGGUCCAUUCUGAGAACAATT against Cdk14, the z-score is reported as inactive: -0.432. In the case of GGAUUUAAUAGCCAUCGGUTT against Slc26a8, the z-score is reported as inactive: 0.266. With CCCUUCUCUCGGAAUAAUATT against Gng12 the z-score was inactive: 0.786. For GGAAGAAAAUUCCAAUUUGTT against Rnf24, the z-score was inactive: -0.134. With GCGUGUACUAAGUUCUUUGTT against Olfr549 the z-score was inactive: 0.972. For GGCUGGAUUCUUGAACCUGTT against Zfp128, the z-score was inactive: -0.299. In the case of CCACACCAUAACAACAUUCTT against Olfr800, the z-score is reported as active: -2.05. For GUCUAUACACCAAAGAUCUTT against Olfr1014, the z-score was inactive: 1.21. With GGAGACAGUAAUAGCUCAUTT against Trp53bp1 the z-score was inactive: -0.527. In the case of GGCAUUUAGUGACAACCCATT against Cxcl13, the z-score is reported as inactive: -1.13. With GCUAUACUUUUGGGUUAUCTT against Mynn the z-score was inactive: 0.933. For GGAUACCAGACCUCAAGUGTT against P2rx1, the z-score was inactive: -0.45. In the case of GGAAGCAUUGAAGAUAAGATT against Topbp1, the z-score is reported as inactive: -0.273. In the case of GGGACUGAACUCCUGUUGGTT against Tspan10, the z-score is reported as inactive: -0.262.

From PubChem BioAssay AID1508600 (Functional Genomics Laboratory (NCATS/FGL), 2020)
